From patent US5789542A (Board of Supervisors of Louisiana State University and …, priority 1997, dated 1998)
Some peptides are written in HELM: one residue between dots, names in brackets for other building blocks, links after the first $.

Test: solution-phase peptide synthesis; PAL-PS (peptide-amide linker polystyrene) for (KLAKLAK)3 and (KFAKFAK)3; polyethyleneglycol-polyamide linker on polystyr; pentafluorophenyl esters with HOBT in DMF
Conditions: whole synthesis, overall

PEPTIDE1{K.L.A.K.K.L.A.K.L.A.K.K.L.A.[OMe]}$$$$V2.0
isolated yield: approximately 5%
